The text below walks through data of US20120263730A1.

Protein sequences, listed by entry. Tags and fused reporters are not part of them. Lines headed by an entry give the natural chain unless they say otherwise; changes in a name come on top.
UniProt P51654: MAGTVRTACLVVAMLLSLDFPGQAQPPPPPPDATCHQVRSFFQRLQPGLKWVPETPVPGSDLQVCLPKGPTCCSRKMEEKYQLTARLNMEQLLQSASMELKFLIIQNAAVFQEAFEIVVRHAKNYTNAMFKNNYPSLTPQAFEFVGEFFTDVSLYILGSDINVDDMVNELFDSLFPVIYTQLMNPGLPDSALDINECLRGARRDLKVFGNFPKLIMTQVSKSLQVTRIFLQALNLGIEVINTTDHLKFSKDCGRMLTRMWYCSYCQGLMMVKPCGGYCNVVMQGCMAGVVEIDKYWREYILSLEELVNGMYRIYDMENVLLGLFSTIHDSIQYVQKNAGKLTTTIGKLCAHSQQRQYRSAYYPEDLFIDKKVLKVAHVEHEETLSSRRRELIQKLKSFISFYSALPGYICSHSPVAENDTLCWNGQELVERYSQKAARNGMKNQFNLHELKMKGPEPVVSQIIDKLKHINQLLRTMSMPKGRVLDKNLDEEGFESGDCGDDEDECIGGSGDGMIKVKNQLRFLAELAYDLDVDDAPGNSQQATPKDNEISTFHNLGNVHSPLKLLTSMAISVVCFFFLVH

No constants are given. Whether binding was seen depends on the method and setting. Binding can be weak; no strength is given. Where a sequence is shown, tags or fusion partners need not be part of it.

For test [1], the target named is Frizzled5. As to the kind of experiment: cell surface binding, V5-tagged Wnt5a on transfected HEK293T cells.
Test [2] concerns the target human Glypican-3 (human) (UniProt P51654). As to the kind of experiment: cell surface binding, AP fusion on transfected HEK293T cells.

B1: Wnt5aV5 (V5-tagged Wnt5a) (ligand, mouse, UniProt P22725 62-380, looked up, not shown: small tags and cut ends)
chain: IIGAQPLCSQLAGLSQGQKKLCHLYQDHMQYIGEGAKTGIKECQYQFRHRRWNCSTVDNTSVFGRVMQIGSRETAFTYAVSAAGVVNAMSRACREGELSTCGCSRAARPKDLPRDWLWGGCGDNIDYGYRFAKEFVDARERERIHAKGSYESARILMNLHNNEAGRRTVYNLADVACKCHGVSGSCSLKTCWLQLADFRKVGDALKEKYDSAAAMRLNSRGKLVQVNSRFNSPTTQDLVYIDPSPDYCVRNESTGSLGTQGRLCNKTSEGMDGCELMCCGRGYDQFKTVQTERCHCKFHWCCYVKCKKCTEIVDQFVCK
Regarding B1, in test [1], the binding entry is “binds”.

B2: hRspo3TSP-AP (signal peptide fused to the TSP domain aa146-209 of human Rspondin-3, followed by AP tag) (ligand, not shown: large carriers)
chain: VHCEVSEWNPWSPCTKKGKTCGFKRGTETRVREIIQHPSAKGNLCPPTNETRKCTVQRKKCQKG
With B2, the binding entry in test [2] is reported as “binds”.
